A weaker result is weaker than the reference pair of the same experiment.

Protein sequences, listed by entry. Tags and fused reporters are not part of them. Residues count along the entry.
UniProt Q9UBB5, 151-411: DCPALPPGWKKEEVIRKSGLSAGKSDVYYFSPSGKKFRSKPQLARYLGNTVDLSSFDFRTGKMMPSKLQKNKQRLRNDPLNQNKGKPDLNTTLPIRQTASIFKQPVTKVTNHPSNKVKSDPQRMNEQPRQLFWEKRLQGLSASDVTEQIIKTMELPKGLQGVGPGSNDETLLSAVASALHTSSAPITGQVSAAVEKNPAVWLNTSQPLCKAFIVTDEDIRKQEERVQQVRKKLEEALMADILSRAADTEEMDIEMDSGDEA

The target of the series is His10-MBD2 (UniProt Q9UBB5). The series can be described thus: QCM. Particulars: 500 nM DNA, both strands (M.SssI), 350 mM NaCl, 0.1% Triton X-100 (pH and temperature of BB not stated), 30 min, QCM 5th overtone, recombinant protein, residues 151-411, protein details: N-terminal His10.

“CAGGCAGATGCGCAGCACCAAGCAGAGAGGCCAGGTGCAG (double strand) [Mal1C*pG]”: the binding result (notable binding only at MBD2 >239 ng/cm2, 5-methyl-C at the CpG, top strand C11, BB: 50 mM Tris) is reported as “binds more weakly”.
“CAGGCAGATGCGCAGCACCAAGCAGAGAGGCCAGGTGCAGGATCCCAGGCCAGAACCAGGCCTGGCTCAGTGGAGCCGGAAGGGGCAGGC (double strand) [Mal2C*pG-far]”: the binding result (threshold MBD2 density ~159 ng/cm2, 5-methyl-C at all CpGs, top strand C11, C77, BB: 50 mM Tris) is listed as “binds more weakly”.
In the case of “CAGGCAGATGCGCAGCACCAAGCAGAGAGGCCCGGTGCAGGATCCCAGGCCAGAACCAGGCCTGGCTCAGTGGAGCAGGAAGGGGCAGGC (double strand) [Mal2C*pG-close]”, the binding result (threshold MBD2 density ~159 ng/cm2, 5-methyl-C at all CpGs, top strand C11, C33, BB: 50 mM Tris) is “binds more weakly”.

The values are drawn from article PMC9478954.
